Data taken from PubChem BioAssay AID504749, deposited by NCATS (2011).

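Malaria parasite (P. falciparum) lines kept in red blood cells; parasite DNA is measured by SYBR Green fluorescence after lysis, 72 h after compound addition.
Each compound was titrated across a series from about 0.000037 to 29 µM.
The number is the fitted AC50, the concentration giving a half-maximal change in signal; a lower value means higher potency, whether the curve shows a decrease or an increase.
Calls follow the curve class and fit quality: every row here is inconclusive, covering signal-raising curves and weak, poorly fitted, partial or highest-dose-only inhibition curves.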

Values are in µM.
Every entry below has the call inconclusive.
Only part of the assay is shown, chiefly results filed as inconclusive.
Potencies fitted to partial, single-point or poorly fitting curves are rough.

| structure | tested on / at | fitted potency (µM) | curve as filed |
|---|---|---|---|
| `CCOP(=S)(OCC)Oc1ccc2c(C)c(Cl)c(=O)oc2c1` | DFO2036 | 15.85 | inhibitor, partial curve |
| `CCOP(=S)(OCC)Oc1ccc2c(C)c(Cl)c(=O)oc2c1` | 3D7 | 17.78 | inhibitor, single point |
| `CCOP(=S)(OCC)Oc1ccc2c(C)c(Cl)c(=O)oc2c1` | CP191 | 10 | inhibitor, single point |
| `CCOP(=S)(OCC)Oc1ccc2c(C)c(Cl)c(=O)oc2c1` | CP335 | 19.01 | inhibitor, single point |
| `CCOP(=S)(OCC)Oc1ccc2c(C)c(Cl)c(=O)oc2c1` | CP305 | 15.1 | inhibitor, single point |
| `CCOP(=S)(OCC)Oc1ccc2c(C)c(Cl)c(=O)oc2c1` | CP185 | 15.85 | inhibitor, single point |
| `CCOP(=S)(OCC)Oc1ccc2c(C)c(Cl)c(=O)oc2c1` | CP201 | 6.746 | inhibitor, partial curve |
| `CCOP(=S)(OCC)Oc1ccc2c(C)c(Cl)c(=O)oc2c1` | ICS | 11.22 | inhibitor, single point |
| `CCOP(=S)(OCC)Oc1ccc2c(C)c(Cl)c(=O)oc2c1` | CP256 | 6.31 | inhibitor, partial curve |
| `CCOP(=S)(OCC)Oc1ccc2c(C)c(Cl)c(=O)oc2c1` | CP194 | 16.94 | inhibitor, single point |
| `CCOP(=S)(OCC)Oc1ccc2c(C)c(Cl)c(=O)oc2c1` | CP250 | 12.59 | inhibitor, single point |
| `CCOP(=S)(OCC)Oc1ccc2c(C)c(Cl)c(=O)oc2c1` | CP260 | 10 | inhibitor, partial curve |
| `CCOP(=S)(OCC)Oc1ccc2c(C)c(Cl)c(=O)oc2c1` | CP297 | 9.528 | inhibitor, partial curve, poor fit |
| `CCOP(=S)(OCC)Oc1ccc2c(C)c(Cl)c(=O)oc2c1` | CP329 | 19.01 | inhibitor, single point |
| `CCOP(=S)(OCC)Oc1ccc2c(C)c(Cl)c(=O)oc2c1` | CP203 | 12 | inhibitor, single point |
| `CCOP(=S)(OCC)Oc1ccc2c(C)c(Cl)c(=O)oc2c1` | CP291 | 12 | inhibitor, partial curve |
| `CCOP(=S)(OCC)Oc1ccc2c(C)c(Cl)c(=O)oc2c1` | AS120 | 11.22 | inhibitor, partial curve |
| `CCOP(=S)(OCC)Oc1ccc2c(C)c(Cl)c(=O)oc2c1` | 7G8 | 10 | inhibitor, single point |
| `CCOP(=S)(OCC)Oc1ccc2c(C)c(Cl)c(=O)oc2c1` | P93_24 | 10 | inhibitor, partial curve |
| `CCOP(=S)(OCC)Oc1ccc2c(C)c(Cl)c(=O)oc2c1` | CP217 | 17.78 | inhibitor, single point |
| `CCOP(=S)(OCC)Oc1ccc2c(C)c(Cl)c(=O)oc2c1` | CP238 | 11.22 | inhibitor, single point |
| `CCOP(=S)(OCC)Oc1ccc2c(C)c(Cl)c(=O)oc2c1` | DIV30 | 1.901 | inhibitor, partial curve, poor fit |
| `CCOP(=S)(OCC)Oc1ccc2c(C)c(Cl)c(=O)oc2c1` | parasite line A | 12.59 | inhibitor, partial curve |
| `CCOP(=S)(OCC)Oc1ccc2c(C)c(Cl)c(=O)oc2c1` | CP269 | 19.01 | inhibitor, single point |
| `CCOP(=S)(OCC)Oc1ccc2c(C)c(Cl)c(=O)oc2c1` | CP252 | 12.59 | inhibitor, single point |
| `CCOP(=S)(OCC)Oc1ccc2c(C)c(Cl)c(=O)oc2c1` | CP268 | 15.1 | inhibitor, single point |
| `CCOP(=S)(OCC)Oc1ccc2c(C)c(Cl)c(=O)oc2c1` | CP265 | 8.912 | inhibitor, single point |
| `CCOP(=S)(OCC)Oc1ccc2c(C)c(Cl)c(=O)oc2c1` | CP325 | 19.01 | inhibitor, single point |
| `CCOP(=S)(OCC)Oc1ccc2c(C)c(Cl)c(=O)oc2c1` | CP215 | 13.46 | inhibitor, single point |

The last 2 entries again:

structure,tested on / at,fitted potency (µM),curve as filed
CCOP(=S)(OCC)Oc1ccc2c(C)c(Cl)c(=O)oc2c1,CP325,19.01,"inhibitor, single point"
CCOP(=S)(OCC)Oc1ccc2c(C)c(Cl)c(=O)oc2c1,CP215,13.46,"inhibitor, single point"